Measurements published in publication PMC7947682.
Results are given in words; binding and its absence hold for the method and conditions named. In cells and extracts the contact can be indirect. Here binding means that the protein was enriched with, or labelled near, the bait; the list need not be complete.

Biological target: T1, Avi-FOXA2 (UniProt Q9Y261)
T1 sequence (chain, biotin on the Avi tag (biotin tagging system with co-expressed E. coli BirA)): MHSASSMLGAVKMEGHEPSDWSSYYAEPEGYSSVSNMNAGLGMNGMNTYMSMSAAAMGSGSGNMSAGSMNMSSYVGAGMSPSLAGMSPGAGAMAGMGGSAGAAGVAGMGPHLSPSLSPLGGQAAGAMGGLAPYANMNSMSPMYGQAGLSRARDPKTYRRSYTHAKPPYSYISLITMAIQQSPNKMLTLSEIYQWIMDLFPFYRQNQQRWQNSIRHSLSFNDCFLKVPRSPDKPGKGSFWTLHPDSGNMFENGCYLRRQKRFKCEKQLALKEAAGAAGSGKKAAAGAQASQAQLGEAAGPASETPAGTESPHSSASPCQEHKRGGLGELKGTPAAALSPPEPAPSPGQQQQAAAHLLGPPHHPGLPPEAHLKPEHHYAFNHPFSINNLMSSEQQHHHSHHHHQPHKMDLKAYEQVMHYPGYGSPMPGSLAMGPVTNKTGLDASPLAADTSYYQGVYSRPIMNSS
Assay: affinity purification with mass spectrometry; MCF-7 cells transfected with pAvi-FOXA2 and pEF1-BirA; lysate (150 mM NaCl, 1% NP-40, 50 mM Tris-HCl pH 7.4) on streptavidin resin overnight, washed four times; SDS-PAGE, trypsin digest, LTQ Orbitrap Velos

| Binder | binding |
| --- | --- |
| Isoform 2 of Methylcrotonoyl-CoA carboxylase beta chain, mitochondrial (protein, UniProt Q9HCC0-2 23-525) YHGDSVASLGTQPDLGSALYQENYKQMKALVNQLHERVEHIKLGGGEKARALHISRGKLLPRERIDNLIDPGSPFLELSQFAGYQLYDNEEVPGGGIITGIGRVSGVECMIIANDATVKGGAYYPVTVKKQLRAQEIAMQNRLPCIYLVDSGGAYLPRQADVFPDRDHFGRTFYNQAIMSSKNIAQVKAATGEEVSAEDLGGADLHCRKSGVSDHWALDDHHALHLTRKVVRNLNYQKKLDVTIEPSEEPLFPADELYGIVGANLKRSFDVREVIARIVDGSRFTEFKAFYGDTLVTGFARIFGYPVGIVGNNGVLFSESAKKGTHFVQLCCQRNIPLLFLQNITGFMVGREYEAEGIAKDGAKMVAAVACAQVPKITLIIGGSYGAGNYGMCGRAYSPRFLYIWPNARISVMGGEQAANVLATITKDQRAREGKQFSSADEAALKEPIIKKFEEEGNPYYSSARVWDDGIIDPADTRLVLGLSFSAALNAPIEKTDFGIFRM | binds |
| Matrin-3 (protein, UniProt P43243 1-847) MSKSFQQSSLSRDSQGHGRDLSAAGIGLLAAATQSLSMPASLGRMNQGTARLASLMNLGMSSSLNQQGAHSALSSASTSSHNLQSIFNIGSRGPLPLSSQHRGDADQASNILASFGLSARDLDELSRYPEDKITPENLPQILLQLKRRRTEEGPTLSYGRDGRSATREPPYRVPRDDWEEKRHFRRDSFDDRGPSLNPVLDYDHGSRSQESGYYDRMDYEDDRLRDGERCRDDSFFGETSHNYHKFDSEYERMGRGPGPLQERSLFEKKRGAPPSSNIEDFHGLLPKGYPHLCSICDLPVHSNKEWSQHINGASHSRRCQLLLEIYPEWNPDNDTGHTMGDPFMLQQSTNPAPGILGPPPPSFHLGGPAVGPRGNLGAGNGNLQGPRHMQKGRVETSRVVHIMDFQRGKNLRYQLLQLVEPFGVISNHLILNKINEAFIEMATTEDAQAAVDYYTTTPALVFGKPVRVHLSQKYKRIKKPEGKPDQKFDQKQELGRVIHLSNLPHSGYSDSAVLKLAEPYGKIKNYILMRMKSQAFIEMETREDAMAMVDHCLKKALWFQGRCVKVDLSEKYKKLVLRIPNRGIDLLKKDKSRKRSYSPDGKESPSDKKSKTDGSQKTESSTEGKEQEEKSGEDGEKDTKDDQTEQEPNMLLESEDELLVDEEEAAALLESGSSVGDETDLANLGDVASDGKKEPSDKAVKKDGSASAAAKKKLKKVDKIEELDQENEAALENGIKNEENTEPGAESSENADDPNKDTSENADGQSDENKDDYTIPDEYRIGPYQPNVPVGIDYVIPKTGFYCKLCSLFYTNEEVAKNTHCSSLPHYQKLKKFLNKLAEERRQKKET | binds |
